In publication PMC5027291, “The NF-YC–RGL2 module integrates GA and ABA signalling to regulate seed germination in Arabidopsis” (Nature Communications, 2016):

Biological target: T1, BD-NF-YC9 (Arabidopsis) (UniProt Q8L4B2)
T1 sequence: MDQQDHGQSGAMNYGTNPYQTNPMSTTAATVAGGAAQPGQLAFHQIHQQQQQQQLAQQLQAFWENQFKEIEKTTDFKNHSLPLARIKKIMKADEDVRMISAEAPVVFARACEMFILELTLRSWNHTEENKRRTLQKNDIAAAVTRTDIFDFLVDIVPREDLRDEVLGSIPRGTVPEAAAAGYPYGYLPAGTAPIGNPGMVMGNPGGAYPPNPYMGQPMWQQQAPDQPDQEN
Experiment: two-hybrid; yeast AH109 co-transformed with pGBKT7 bait and pGADT7 prey constructs; growth on SD/-Trp/-Leu/-His/-Ade

binding	Substance
binds	RGL2ΔD (Arabidopsis) (domain or fragment)
no binding	RGL2ΔG (Arabidopsis) (domain or fragment)

No constants are given. Whether binding was seen depends on the method and setting. A result given as binding can be weak or reduced; the word gives no strength. Where a sequence is shown, tags or fusion partners need not be part of it.
